In all, about 33,000 sequences were measured (“E-score (-0.5 to 0.5)”: median about -0.015, highest 2% from about 0.3 on). The list shows a part of the results.
target: T1, Abf1 (UniProt P14164); assay: PBM E-score (8-mer binding enrichment) (E-score (-0.5 to 0.5)); higher = stronger / more preferred TF binding; conditions: protein concentration: 200 nM; construct: GST-full length
T1 sequence: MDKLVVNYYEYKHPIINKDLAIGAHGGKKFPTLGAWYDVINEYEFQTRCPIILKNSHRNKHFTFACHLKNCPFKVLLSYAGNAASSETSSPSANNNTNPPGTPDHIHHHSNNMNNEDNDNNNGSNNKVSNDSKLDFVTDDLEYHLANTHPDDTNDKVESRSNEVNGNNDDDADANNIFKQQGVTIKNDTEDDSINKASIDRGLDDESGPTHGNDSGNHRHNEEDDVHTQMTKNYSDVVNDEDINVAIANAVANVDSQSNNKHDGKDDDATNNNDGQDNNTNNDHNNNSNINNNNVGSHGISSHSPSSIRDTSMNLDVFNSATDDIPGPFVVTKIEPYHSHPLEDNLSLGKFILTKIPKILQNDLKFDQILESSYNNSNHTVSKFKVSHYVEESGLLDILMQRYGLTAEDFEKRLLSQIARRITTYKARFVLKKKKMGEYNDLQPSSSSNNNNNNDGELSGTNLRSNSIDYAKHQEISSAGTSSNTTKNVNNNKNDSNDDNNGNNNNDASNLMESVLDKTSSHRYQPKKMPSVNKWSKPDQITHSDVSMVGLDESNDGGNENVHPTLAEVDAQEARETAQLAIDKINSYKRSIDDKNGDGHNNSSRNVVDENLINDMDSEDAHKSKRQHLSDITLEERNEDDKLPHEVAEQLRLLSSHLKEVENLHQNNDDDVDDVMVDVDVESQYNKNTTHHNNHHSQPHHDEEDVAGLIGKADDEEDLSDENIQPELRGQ
Summary of the method: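 Yeast transcription factors carrying a GST tag, as full-length proteins or DNA-binding domains, were produced by PURExpress in vitro transcription/translation. About 100-200 nM protein was applied to universal all-10-mer Agilent arrays, double-stranded by primer extension on fresh or once-stripped slides. Bound protein was detected with fluorescent anti-GST, and scans were normalised with masliner. The Universal PBM Analysis Suite gave each ungapped eight-base word, pooled with its reverse complement, an E-score, a modified Wilcoxon-Mann-Whitney statistic.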

Row | Sequence | PBM E-score
1 | CCTAACCA | -0.152
2 | GCCCAATA | -0.189
3 | ATTGTCAC | 0.398
4 | AGAGACCG | -0.0561
5 | CCCCGCTA | -0.0213
6 | GGTCGTTA | 0.122
7 | TCACCAGA | 0.0505
8 | GGGTAGCA | -0.122
9 | AAAGCGGA | -0.136
10 | CATCCGAA | 0.0517
11 | CGGCCGTC | 0.02
12 | AGGCGGCG | 0.00332
13 | CACTGCCC | -0.118
14 | CATGGAGC | -0.15
15 | GCCGTATA | 0.379
16 | CTTGGAGC | -0.172
17 | GCACCTCC | -0.186
18 | ACTATCCC | 0.0467
19 | CGGGTAAG | -0.0765
20 | CGTTAAAA | 0.219
21 | AAGAGCGC | -0.0537
22 | GGAACACA | -0.189

Row | Sequence | PBM E-score
23 | ACCCCCGG | -0.32
24 | ATCTCGTC | 0.175
25 | CCACTGCG | -0.237
26 | AGCCCAAG | -0.219
27 | AAAATAGT | 0.138
28 | AAATCTGT | -0.03
29 | CAGTGTTC | -0.0641
30 | CCTGATAC | 0.143
31 | ACAAGCGA | 0.0929
32 | GAGCGGCC | -0.239
33 | AGGTCCAC | -0.0594
34 | CAAGAGGC | -0.191
35 | GATCTCTA | -0.0682
36 | CCTTCGAC | -0.107
37 | CACGCTGC | -0.0503
38 | ACTTAACG | 0.0106
39 | ATGTTCGC | 0.00598
40 | AAAGCGGT | -0.032
41 | CATGTTCC | -0.123
42 | GCGTGCTA | 0.0297
43 | ATAGATGG | -0.26
44 | CTGCTCTA | 0.147

Row | Sequence | PBM E-score
45 | CACCTATG | -0.00725
46 | ACCTGTCA | 0.0221
47 | CGGCACGA | 0.278
48 | ACACCTAG | -0.227
49 | CGGTAGTA | 0.105
50 | CCAGTCTA | -0.227
51 | GCTTGTGA | -0.0307
52 | CAATTATA | 0.0546
53 | CGCCTTTA | 0.0353
54 | AAATCTAC | -0.0132
55 | ACGGGTGC | 0.0875
56 | GCTGCCTA | -0.0861
57 | AATATATG | 0.104
58 | GATCTAAC | 0.0538
59 | AATTTTCT | -0.0094
60 | AACAGTCT | -0.213
61 | ACACGGGC | 0.115
62 | AGTACTCC | -0.194
63 | CGTCAGCA | 0.0272
64 | ACACTGAC | -0.0754
65 | ATTTGAAC | 0.0262
66 | ATAAATCC | 0.0498

Row | Sequence | PBM E-score
67 | AACAAAGT | 0.0675
68 | CCCGATTC | -0.0345
69 | CGCCGAGA | -0.0173
70 | CGATACAC | 0.0793
71 | CTTCGTCA | 0.246
72 | CCCGCCAC | -0.159
73 | AAAGGGCG | -0.136
74 | TACGCCAA | -0.0663
75 | AATCAATA | 0.133
76 | CATTGGGA | 0.0169
77 | GATCCATC | -0.0836
78 | CATCAGCA | -0.0255
79 | CGTGGCTA | 0.0277
80 | ACCGTTCG | 0.279
81 | CCCCGGTC | -0.265
82 | ACGAAGAC | 0.308
83 | CGCTCTGA | -0.00883
84 | AACGAACC | 0.196
85 | TACAGTCA | 0.171
86 | AACCAATA | 0.149

From no. 85 as far as 86, as listed above:
Row | Sequence | PBM E-score
85 | TACAGTCA | 0.171
86 | AACCAATA | 0.149

Reference: the supplement of paper PMC3334620
